PMC8421392
These are yes or no findings as the source states them, for the method shown. Binding seen in cells or lysates may run through a third protein. Some binding calls cover weakened binding; strength is not graded here. Sequences can lack the tags named with a protein.

Sequences of proteins named here, by UniProt entry; tags and fusion partners are left off. Residues count along the entry.
UniProt P06213, residues 28-1382: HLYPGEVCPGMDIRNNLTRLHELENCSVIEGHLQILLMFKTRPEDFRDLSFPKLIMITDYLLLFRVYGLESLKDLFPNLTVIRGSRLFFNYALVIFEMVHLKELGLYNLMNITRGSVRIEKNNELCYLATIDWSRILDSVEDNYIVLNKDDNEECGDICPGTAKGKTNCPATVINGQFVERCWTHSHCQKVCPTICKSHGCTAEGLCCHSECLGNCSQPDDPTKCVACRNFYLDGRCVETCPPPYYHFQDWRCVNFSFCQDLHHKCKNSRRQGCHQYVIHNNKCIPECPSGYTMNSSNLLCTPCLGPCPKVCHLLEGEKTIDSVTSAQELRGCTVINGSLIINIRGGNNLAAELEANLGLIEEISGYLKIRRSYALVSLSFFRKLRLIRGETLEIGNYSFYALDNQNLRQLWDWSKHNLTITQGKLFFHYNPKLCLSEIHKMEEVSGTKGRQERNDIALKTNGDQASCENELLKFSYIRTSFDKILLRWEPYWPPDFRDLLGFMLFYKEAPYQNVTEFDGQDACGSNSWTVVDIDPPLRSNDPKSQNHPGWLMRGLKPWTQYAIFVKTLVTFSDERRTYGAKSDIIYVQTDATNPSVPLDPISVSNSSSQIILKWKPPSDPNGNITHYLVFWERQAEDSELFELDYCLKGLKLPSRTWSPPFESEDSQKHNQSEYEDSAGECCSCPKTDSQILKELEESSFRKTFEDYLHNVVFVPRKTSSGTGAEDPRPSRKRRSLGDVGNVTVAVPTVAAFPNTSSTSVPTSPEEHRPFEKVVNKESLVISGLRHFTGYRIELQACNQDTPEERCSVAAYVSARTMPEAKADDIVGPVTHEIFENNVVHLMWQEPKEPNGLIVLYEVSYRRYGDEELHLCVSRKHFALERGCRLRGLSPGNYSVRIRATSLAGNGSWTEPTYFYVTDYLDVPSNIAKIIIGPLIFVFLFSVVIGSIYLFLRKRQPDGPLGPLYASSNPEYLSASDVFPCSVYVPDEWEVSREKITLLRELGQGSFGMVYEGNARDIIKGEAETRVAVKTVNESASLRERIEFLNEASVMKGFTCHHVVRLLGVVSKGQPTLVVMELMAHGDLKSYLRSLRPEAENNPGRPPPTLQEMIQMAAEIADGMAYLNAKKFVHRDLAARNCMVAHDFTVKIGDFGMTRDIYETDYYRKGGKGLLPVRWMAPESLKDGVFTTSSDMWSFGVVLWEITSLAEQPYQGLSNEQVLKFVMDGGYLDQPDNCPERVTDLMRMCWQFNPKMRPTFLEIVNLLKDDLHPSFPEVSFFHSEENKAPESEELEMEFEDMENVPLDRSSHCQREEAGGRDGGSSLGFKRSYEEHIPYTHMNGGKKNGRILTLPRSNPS
UniProt P08069, residues 31-1367: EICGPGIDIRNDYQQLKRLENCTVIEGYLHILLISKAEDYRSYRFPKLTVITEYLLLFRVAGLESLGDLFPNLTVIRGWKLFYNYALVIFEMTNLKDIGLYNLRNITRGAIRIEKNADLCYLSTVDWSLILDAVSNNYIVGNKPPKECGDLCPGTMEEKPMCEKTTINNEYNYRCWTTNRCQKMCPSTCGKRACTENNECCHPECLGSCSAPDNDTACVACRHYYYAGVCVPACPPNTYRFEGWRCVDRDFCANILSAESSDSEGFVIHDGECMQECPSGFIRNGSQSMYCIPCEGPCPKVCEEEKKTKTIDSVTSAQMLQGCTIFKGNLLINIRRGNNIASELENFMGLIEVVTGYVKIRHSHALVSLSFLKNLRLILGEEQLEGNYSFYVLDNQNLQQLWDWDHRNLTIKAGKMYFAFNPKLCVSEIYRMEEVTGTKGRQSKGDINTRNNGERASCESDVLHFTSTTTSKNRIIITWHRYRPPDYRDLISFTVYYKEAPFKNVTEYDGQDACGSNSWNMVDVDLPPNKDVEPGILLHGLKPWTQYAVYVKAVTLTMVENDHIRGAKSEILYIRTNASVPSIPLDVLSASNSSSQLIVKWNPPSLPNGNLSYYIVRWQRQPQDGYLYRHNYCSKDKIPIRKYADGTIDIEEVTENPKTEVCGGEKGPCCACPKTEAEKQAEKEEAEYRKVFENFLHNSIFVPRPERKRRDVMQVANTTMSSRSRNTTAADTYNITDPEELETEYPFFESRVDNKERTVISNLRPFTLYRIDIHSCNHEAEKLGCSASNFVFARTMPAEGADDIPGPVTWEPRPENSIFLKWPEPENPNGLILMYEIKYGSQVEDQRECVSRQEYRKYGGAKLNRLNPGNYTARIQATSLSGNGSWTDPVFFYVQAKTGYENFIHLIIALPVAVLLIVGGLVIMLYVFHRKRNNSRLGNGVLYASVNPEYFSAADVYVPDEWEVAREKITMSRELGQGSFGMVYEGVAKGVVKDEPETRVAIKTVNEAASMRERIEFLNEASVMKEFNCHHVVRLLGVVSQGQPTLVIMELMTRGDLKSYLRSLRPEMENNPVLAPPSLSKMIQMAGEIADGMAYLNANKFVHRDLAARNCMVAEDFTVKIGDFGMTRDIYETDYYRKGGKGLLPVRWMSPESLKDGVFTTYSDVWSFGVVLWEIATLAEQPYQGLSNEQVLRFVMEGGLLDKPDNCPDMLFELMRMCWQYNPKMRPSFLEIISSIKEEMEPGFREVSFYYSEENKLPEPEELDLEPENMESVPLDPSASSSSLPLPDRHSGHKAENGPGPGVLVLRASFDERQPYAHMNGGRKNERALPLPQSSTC
UniProt Q60751, residues 31-1373: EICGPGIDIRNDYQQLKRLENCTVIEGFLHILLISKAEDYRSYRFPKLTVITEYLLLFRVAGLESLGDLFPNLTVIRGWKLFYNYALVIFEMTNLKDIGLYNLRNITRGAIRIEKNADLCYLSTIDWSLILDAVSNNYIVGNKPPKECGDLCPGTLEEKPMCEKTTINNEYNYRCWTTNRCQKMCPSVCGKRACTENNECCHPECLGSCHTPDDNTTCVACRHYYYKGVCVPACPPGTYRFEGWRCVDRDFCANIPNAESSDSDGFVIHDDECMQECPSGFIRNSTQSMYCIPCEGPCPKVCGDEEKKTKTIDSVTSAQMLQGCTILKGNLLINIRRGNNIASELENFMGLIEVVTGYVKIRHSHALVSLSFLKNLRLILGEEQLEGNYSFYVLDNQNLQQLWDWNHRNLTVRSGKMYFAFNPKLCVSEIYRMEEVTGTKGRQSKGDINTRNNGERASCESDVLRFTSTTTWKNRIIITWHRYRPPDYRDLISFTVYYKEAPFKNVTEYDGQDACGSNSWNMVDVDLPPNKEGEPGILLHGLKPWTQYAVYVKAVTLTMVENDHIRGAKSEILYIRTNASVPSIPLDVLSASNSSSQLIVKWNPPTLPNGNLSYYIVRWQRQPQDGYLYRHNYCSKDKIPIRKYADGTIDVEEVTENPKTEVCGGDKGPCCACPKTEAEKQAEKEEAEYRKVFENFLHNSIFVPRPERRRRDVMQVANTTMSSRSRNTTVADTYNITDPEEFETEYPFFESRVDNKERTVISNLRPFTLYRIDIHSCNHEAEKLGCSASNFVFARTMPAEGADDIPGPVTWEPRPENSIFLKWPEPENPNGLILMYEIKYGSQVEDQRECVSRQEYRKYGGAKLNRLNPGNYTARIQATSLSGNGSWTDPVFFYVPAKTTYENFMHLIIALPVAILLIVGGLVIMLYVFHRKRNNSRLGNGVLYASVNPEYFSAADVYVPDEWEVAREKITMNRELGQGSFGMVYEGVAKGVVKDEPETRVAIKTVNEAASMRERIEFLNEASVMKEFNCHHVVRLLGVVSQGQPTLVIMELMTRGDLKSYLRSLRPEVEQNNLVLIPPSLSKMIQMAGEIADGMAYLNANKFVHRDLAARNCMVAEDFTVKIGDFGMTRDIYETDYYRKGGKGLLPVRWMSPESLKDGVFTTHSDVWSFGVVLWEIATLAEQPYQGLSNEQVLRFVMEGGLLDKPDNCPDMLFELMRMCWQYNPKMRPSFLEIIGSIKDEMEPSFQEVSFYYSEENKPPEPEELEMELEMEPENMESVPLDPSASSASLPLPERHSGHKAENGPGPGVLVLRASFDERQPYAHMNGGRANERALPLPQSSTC
UniProt P15208, residues 28-1372: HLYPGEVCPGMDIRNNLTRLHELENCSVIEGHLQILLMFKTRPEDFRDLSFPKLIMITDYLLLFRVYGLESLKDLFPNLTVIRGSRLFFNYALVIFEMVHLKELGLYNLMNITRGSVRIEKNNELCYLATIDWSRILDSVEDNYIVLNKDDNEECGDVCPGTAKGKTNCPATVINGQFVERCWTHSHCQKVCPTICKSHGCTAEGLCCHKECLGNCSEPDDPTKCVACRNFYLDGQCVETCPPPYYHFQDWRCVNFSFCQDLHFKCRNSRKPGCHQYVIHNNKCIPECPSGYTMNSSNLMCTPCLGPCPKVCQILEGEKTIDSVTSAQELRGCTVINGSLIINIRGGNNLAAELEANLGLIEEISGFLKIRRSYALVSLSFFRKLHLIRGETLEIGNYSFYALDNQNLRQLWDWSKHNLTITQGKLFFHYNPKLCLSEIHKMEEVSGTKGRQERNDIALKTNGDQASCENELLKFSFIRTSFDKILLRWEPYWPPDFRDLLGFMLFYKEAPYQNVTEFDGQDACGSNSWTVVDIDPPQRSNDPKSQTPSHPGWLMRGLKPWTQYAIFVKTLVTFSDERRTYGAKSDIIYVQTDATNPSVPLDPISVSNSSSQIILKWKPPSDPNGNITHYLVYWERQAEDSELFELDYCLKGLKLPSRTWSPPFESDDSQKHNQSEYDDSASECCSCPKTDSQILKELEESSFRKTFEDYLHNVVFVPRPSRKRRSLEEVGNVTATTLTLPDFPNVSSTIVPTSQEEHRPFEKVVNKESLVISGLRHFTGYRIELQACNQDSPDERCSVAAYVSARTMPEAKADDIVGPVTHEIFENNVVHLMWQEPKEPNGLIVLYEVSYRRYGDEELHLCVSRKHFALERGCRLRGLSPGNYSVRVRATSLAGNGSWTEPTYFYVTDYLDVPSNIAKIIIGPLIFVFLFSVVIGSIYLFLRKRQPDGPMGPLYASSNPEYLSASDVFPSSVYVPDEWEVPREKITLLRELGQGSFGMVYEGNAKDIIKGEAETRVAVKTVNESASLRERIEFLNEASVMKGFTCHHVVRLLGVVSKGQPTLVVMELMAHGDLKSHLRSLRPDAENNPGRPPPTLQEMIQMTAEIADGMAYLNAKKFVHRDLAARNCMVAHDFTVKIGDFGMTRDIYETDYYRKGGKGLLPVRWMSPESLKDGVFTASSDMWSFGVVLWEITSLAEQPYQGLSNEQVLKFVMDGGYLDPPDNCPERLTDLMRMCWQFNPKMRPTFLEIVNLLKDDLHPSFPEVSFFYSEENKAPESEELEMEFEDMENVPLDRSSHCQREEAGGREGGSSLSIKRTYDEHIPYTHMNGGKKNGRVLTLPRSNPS

Tests used:
[1] = target: T1, Flag-tagged osteocalcin (Flag-OCN protein) (UniProt P86546); assay: co-IP; HEK293 cells transfected with V5-IGF1R or GFP-IR, two days later treated with Flag-tagged OCN protein, washed with cold PBS, cross-linked with DSP at 4 °C for 2 h; lysates IPed with anti-Flag resin and blotted; only the target purified
T1 sequence: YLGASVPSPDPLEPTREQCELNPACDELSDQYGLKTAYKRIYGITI

[2] = target: T2, Flag-GPRC6A (G protein-coupled receptor family C group 6 member A) (UniProt Q5T6X5); assay: co-IP; HEK293 cells transfected with V5-tagged IGF1R and Flag-GPRC6A plasmids; lysates IPed with anti-Flag resin and blotted
T2 sequence: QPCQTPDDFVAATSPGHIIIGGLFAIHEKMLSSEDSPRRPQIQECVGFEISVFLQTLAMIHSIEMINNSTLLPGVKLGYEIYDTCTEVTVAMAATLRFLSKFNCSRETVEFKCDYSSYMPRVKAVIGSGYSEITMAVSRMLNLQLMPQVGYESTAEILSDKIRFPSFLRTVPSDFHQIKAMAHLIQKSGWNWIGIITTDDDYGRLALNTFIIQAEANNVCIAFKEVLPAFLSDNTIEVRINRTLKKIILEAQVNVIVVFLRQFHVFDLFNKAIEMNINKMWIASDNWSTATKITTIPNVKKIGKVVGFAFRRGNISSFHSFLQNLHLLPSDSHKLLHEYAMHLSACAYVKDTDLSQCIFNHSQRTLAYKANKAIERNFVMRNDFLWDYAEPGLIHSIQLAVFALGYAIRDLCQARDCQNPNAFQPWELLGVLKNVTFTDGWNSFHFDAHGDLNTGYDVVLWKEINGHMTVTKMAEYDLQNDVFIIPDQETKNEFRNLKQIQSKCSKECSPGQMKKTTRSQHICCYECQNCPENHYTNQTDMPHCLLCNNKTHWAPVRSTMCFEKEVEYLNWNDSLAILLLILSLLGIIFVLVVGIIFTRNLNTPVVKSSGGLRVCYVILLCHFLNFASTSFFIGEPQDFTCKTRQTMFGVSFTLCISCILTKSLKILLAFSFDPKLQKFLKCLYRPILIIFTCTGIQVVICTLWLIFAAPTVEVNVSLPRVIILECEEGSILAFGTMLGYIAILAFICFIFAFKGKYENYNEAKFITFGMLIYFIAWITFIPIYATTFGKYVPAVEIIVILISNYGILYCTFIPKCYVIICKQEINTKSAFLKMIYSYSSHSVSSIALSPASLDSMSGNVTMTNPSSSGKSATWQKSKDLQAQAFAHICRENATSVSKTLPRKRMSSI

[3] = target: T1, Flag-tagged osteocalcin (Flag-OCN protein); assay: co-IP; primary hepatocytes treated with Flag-tagged OCN protein, washed with cold PBS, cross-linked with DSP at 4 °C for 2 h; lysates IPed with anti-Flag resin and blotted for endogenous IR and IGF1R; only the target purified

## GFP-IR (insulin receptor) (from UniProt P06213 28-1382)
[1]
  binding: binds

## V5-tagged IGF1R (insulin-like growth factor 1 receptor) (from UniProt P08069 31-1367)
[2]
  binding: binds
[1]
  binding: binds

## endogenous IGF1R (insulin-like growth factor 1 receptor, primary hepatocytes) (from UniProt Q60751 31-1373)
[3]
  binding: binds

## endogenous IR (insulin receptor, primary hepatocytes) (from UniProt P15208 28-1372)
[3]
  binding: binds
